Reference: paper PMC7819943, “Rice protein-binding microarrays: a tool to detect cis-acting elements near promoter regions in rice”
The list shows a part of the results.

Sequences of proteins named here, by UniProt entry; tags and fusion partners are left off.
UniProt Q0JBA9, entry or part of it: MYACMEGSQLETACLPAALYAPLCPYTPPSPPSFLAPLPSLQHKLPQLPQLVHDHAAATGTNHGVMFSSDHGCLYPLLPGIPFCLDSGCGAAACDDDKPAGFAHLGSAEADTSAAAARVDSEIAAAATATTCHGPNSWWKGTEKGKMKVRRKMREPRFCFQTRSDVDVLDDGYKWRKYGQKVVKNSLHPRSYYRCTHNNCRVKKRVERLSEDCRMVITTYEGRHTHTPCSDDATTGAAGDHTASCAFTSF

target: OsWRKY34 (Oryza sativa, UniProt Q0JBA9 1-250); assay: protein-binding microarray (RPBM); PBS, 2% BSA, 51.3 ng/ul salmon testes DNA, 50 uM zinc acetate, 200 nM TF, 25 C, 1 h; high values mean tight binding; details: protein: recombinant; tags: N-terminal polyhistidine and DsRed monomer fusion (pET32a); label: CyDye5-dUTP incorporated in the synthesized complementary strand; 3' TTTTT single-stranded linker to array surface; dsDNA, one strand shown
Procedure, shortened: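 Binding signal is reported as fluorescence intensity per feature (arbitrary units) from an Axon 4000B scanner. Incubation used 200 nM of each Ni–NTA-purified, N-terminally polyhistidine- and DsRed-fused transcription factor from E. coli BL21-CodonPlus on a double-stranded custom Agilent array for 1 h at 25 °C, with 50 µM zinc acetate in the buffer, followed by washing.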

Sequence | binding signal
TTACATTGCACTTGTCGTATGCTATCTAGAATTACCATACCGGAGTCACCTAGTGCAG | 8410 fluorescence intensity (a.u.)
TATCAAACTTTATTATCCCTTGCCGCTTCATTTTCCATCCCGGAGTCACCTAGTGCAG | 10300 fluorescence intensity (a.u.)
ATCCAATCGATCCCGCGCTCTTATGTGTACCTTCATGTTCCGGAGTCACCTAGTGCAG | 8670 fluorescence intensity (a.u.)
GCTTTTCTTTTAGTCCCATATATCTAGCAATTACACACTTCGGAGTCACCTAGTGCAG | 8230 fluorescence intensity (a.u.)
CCCTCGCTCCGCCGTCTCCCCTCGCCGCCGTTCCCCTTCCCGGAGTCACCTAGTGCAG | 8710 fluorescence intensity (a.u.)
CTCCCACCTCGCGCCATCGGATTCCACCTTCCCAGGTCTCCGGAGTCACCTAGTGCAG | 8260 fluorescence intensity (a.u.)
AGACATGTGCCATCTTTTCTGCTCTCCCGACTTGTCTAAGCGGAGTCACCTAGTGCAG | 8520 fluorescence intensity (a.u.)
TGTTCTGCAAGTTCATAGTGCTTTTGGTTGTCGTTGTAGTCGGAGTCACCTAGTGCAG | 9910 fluorescence intensity (a.u.)
ACTTTTCCGTCGCATCGTTCCAATTTCAACCAAACTTTCACGGAGTCACCTAGTGCAG | 10700 fluorescence intensity (a.u.)
GCTCTGTGCCGCACTCGCCGATTCTGCCCGCCTATTTTTTCGGAGTCACCTAGTGCAG | 11400 fluorescence intensity (a.u.)
CTCTCTCGTCTAATTTATACGGTCGAATCAAACGGTAATTCGGAGTCACCTAGTGCAG | 8270 fluorescence intensity (a.u.)
CCCTCTCTCGCCTCGCCTCCTCGTCGTCTTCCTCGCCAACCGGAGTCACCTAGTGCAG | 8250 fluorescence intensity (a.u.)
TTCGCACCACCTCGCCCAGCCGCCCACGCGCGCGGCTCTCCGGAGTCACCTAGTGCAG | 8450 fluorescence intensity (a.u.)
TTCTTTGTGGCCTTCTCGTCGCCATTCTTGGTTGGATTAGCGGAGTCACCTAGTGCAG | 8050 fluorescence intensity (a.u.)
GGGGTCGAAATATCCGGTTTTGTGGTTTATGGTCGTGGATCGGAGTCACCTAGTGCAG | 13000 fluorescence intensity (a.u.)
CTCAGCGCCCGCATCCACCGCATCCATCGTATCCACCGCCCGGAGTCACCTAGTGCAG | 9980 fluorescence intensity (a.u.)
GGAGTAGTATTTTGAGTCGCCGTCACCGTCGGCTCCCTCACGGAGTCACCTAGTGCAG | 9080 fluorescence intensity (a.u.)
GTTGTATGGGCATTGTTAAATTTTTTAAGAAATTTTTATACGGAGTCACCTAGTGCAG | 9100 fluorescence intensity (a.u.)
TCTTCCCTTCTCTCTCCAATCCAGCTCGTGGCAATCCGACCGGAGTCACCTAGTGCAG | 9010 fluorescence intensity (a.u.)
CACACTCACACAGTTCACACTCATATCATATCAACAACACCGGAGTCACCTAGTGCAG | 8300 fluorescence intensity (a.u.)
TCTCCTGACCTTTGCTTGTCTGTCCCTTCGCTTCAACTTCCGGAGTCACCTAGTGCAG | 13700 fluorescence intensity (a.u.)

In another format: entries from further up
Sequence,binding signal
CCCTCGCTCCGCCGTCTCCCCTCGCCGCCGTTCCCCTTCCCGGAGTCACCTAGTGCAG,8710 fluorescence intensity (a.u.)
AGACATGTGCCATCTTTTCTGCTCTCCCGACTTGTCTAAGCGGAGTCACCTAGTGCAG,8520 fluorescence intensity (a.u.)
TCTCCTGACCTTTGCTTGTCTGTCCCTTCGCTTCAACTTCCGGAGTCACCTAGTGCAG,13700 fluorescence intensity (a.u.)

Continuation.

Sequence | binding signal
TTTTTTTTTACTGACATGTCGGTCCCATGAGTGCCATGTACGGAGTCACCTAGTGCAG | 8130 fluorescence intensity (a.u.)
TCGTTTTGACTTTTTCGTAGTCGAAACTTTTTAAAGTTTGCGGAGTCACCTAGTGCAG | 9100 fluorescence intensity (a.u.)
CCCGCTACGCACAGACTTGTCTCTTTTATCCATCGTATTACGGAGTCACCTAGTGCAG | 8480 fluorescence intensity (a.u.)
CTCATGCTTTAGAGGCCTAGTTTTAATGACTATGTGTTTTCGGAGTCACCTAGTGCAG | 11500 fluorescence intensity (a.u.)
TCAGCCTTTTTTTATTTTTCTTATTGACCACTTCAGAATCCGGAGTCACCTAGTGCAG | 9100 fluorescence intensity (a.u.)
CCGAGCCGAGGCCGGAATTTCCTTTTTGGTGCGACGACGACGGAGTCACCTAGTGCAG | 11000 fluorescence intensity (a.u.)
AACAGTGTTCTACGGTTCTACCGAACCCATTCATCACCTTCGGAGTCACCTAGTGCAG | 9160 fluorescence intensity (a.u.)
AGCTCCCATGCATGTCCATTCCATCTCCAAAAGTAACCACCGGAGTCACCTAGTGCAG | 8100 fluorescence intensity (a.u.)
ATCACCTACCCCTGGTCGACAACTTTTTAACGCTCATTGACGGAGTCACCTAGTGCAG | 14400 fluorescence intensity (a.u.)
GATAATTACAGCCTGACGTGACCCTGCTTGTTTCTTTAATCGGAGTCACCTAGTGCAG | 13000 fluorescence intensity (a.u.)
CTTCGAAAATTGTATTCGAACACCATCTCAACATTAGCATCGGAGTCACCTAGTGCAG | 8600 fluorescence intensity (a.u.)
CGATCACGACTTTTCTCACGTGCACCTATCATTAATTAATCGGAGTCACCTAGTGCAG | 11700 fluorescence intensity (a.u.)
GGTGCCAGTGTCCGTCTCCTCCTACGCCATCGACGCCGCCCGGAGTCACCTAGTGCAG | 8150 fluorescence intensity (a.u.)
CCACTCACTTCTAACTACTTTGTTAATAATCGTGTCCAACCGGAGTCACCTAGTGCAG | 8880 fluorescence intensity (a.u.)
CCTCACTTCTCTTTCCTTCCCTCTCCATTCTCTCTTCTCTCGGAGTCACCTAGTGCAG | 8940 fluorescence intensity (a.u.)
CAACCTCGCAAACACCGATACCCACATGCCAGTTCGCAACCGGAGTCACCTAGTGCAG | 8030 fluorescence intensity (a.u.)
TCACTGCACTCTTCCTCTGCACACACGTTTCAGTCTCTCACGGAGTCACCTAGTGCAG | 9420 fluorescence intensity (a.u.)
AAGGTGTTTGGTTGATTTTTGTTATGTACAATTTTTTGGTCGGAGTCACCTAGTGCAG | 8680 fluorescence intensity (a.u.)
GTACACCACTCCTCTGTCTATTTAATCACAAGCAAATCAACGGAGTCACCTAGTGCAG | 8080 fluorescence intensity (a.u.)
CTCGCCATCTTCGCCGTCCTTGCTTTCTTATATAAATTTTCGGAGTCACCTAGTGCAG | 12200 fluorescence intensity (a.u.)
TACTTGGCTATACTATTAAACTTGCTCTCGCACCATCTTTCGGAGTCACCTAGTGCAG | 9680 fluorescence intensity (a.u.)
